Paper PMC6105217
Results are given in words; binding and its absence hold for the method and conditions named. Binding seen in cells or lysates may run through a third protein. These calls come from enrichment with a bait or labelling near it, and not all partners need be listed. Tags and fused reporters may be left off the sequences shown.

Sequences of proteins named here, by UniProt entry; tags and fusion partners are left off. A change or cut given only in a name is not applied to a line headed by its entry.
UniProt Q97VT8: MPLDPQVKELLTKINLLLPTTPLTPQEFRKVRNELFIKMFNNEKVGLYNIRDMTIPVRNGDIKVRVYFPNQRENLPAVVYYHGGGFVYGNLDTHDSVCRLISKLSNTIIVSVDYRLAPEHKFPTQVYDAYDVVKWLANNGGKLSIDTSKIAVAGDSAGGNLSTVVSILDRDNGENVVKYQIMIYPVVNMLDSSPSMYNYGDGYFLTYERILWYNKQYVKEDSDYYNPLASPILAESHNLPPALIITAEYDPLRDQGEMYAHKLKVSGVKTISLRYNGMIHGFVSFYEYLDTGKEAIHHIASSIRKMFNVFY
UniProt Q97UK6: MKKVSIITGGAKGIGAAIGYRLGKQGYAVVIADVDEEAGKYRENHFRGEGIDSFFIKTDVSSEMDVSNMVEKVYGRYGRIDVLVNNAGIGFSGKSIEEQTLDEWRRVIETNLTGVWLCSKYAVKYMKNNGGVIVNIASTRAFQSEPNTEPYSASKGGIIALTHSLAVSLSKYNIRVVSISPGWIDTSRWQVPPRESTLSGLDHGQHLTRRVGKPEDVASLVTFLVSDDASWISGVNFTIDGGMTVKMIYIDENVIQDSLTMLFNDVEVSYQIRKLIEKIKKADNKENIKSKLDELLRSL
UniProt Q97ZQ0: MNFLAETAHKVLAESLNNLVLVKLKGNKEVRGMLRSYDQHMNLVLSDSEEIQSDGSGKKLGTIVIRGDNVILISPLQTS

These substances were tested against T1, N-His-aIF5A produced in Sso PH1-16 (pMJ05-N-His-aIF5A) (Sulfolobus solfataricus) (UniProt Q97ZE8) (assay: affinity purification with mass spectrometry; N-His-aIF5A and co-purifying proteins from lysate of Sso PH1-16 (pMJ05-N-His-aIF5A) on Ni-NTA agarose; wash with 300 mM NaCl; whole eluate digested with trypsin, LC-MS/MS, label free quantification against a mock purification; enriched more than …).
T1 sequence (chain, modified, recognised by anti-hypusine antibodies (hypusine or deoxyhypusine)): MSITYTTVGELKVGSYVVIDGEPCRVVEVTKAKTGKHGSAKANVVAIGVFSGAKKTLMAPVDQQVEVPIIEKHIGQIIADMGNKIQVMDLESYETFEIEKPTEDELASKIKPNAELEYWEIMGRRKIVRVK

| Substance | binding |
| --- | --- |
| Succinate dehydrogenase | binds |
| Carboxylesterase (from UniProt Q97VT8) | binds |
| 3-Oxoacyl reductase (from UniProt Q97UK6) | binds |
| SmAP1 (from UniProt Q97ZQ0) | binds |
| Acetoacetyl-CoA thiolase | binds |
